# The supplement of paper PMC12009310
# Where a name gives a salt, the structure may show the parent alone. ± gives the standard deviation of the averaged measurements. Some of the results follow. Part of the spread comes from offsets between plates or batches.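 A mouse kidney inner medullary collecting duct cell line was silenced for the ciliary gene Rpgrip1l or given non-targeting control siRNA. Primary scores average two runs versus batch controls. In follow-up screening, hits raised cilia at least 2 over matched controls; compounds lowering cell number by 2 or more were excluded. The cells are a mouse kidney inner medullary collecting duct line, silenced either for the ciliary gene Rpgrip1l or with a non-targeting control siRNA.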
# Tested on: mIMCD3
# Assay: robust z cilia incidence difference from vehicle control (robust z score difference); higher = more ciliated cells
# Details: 10 µM; 48 h; siRNA: siScr
row,Compound,robust z cilia incidence difference
1,CC(=N)NCc1cccc(CN)c1 [1400W dihydrochloride],2.73 ± 2.1
2,O=C(O)/C=C/c1ccc(Cn2ccnc2)cc1 [Ozagrel hydrochloride],3.21 ± 3
3,CC(=O)N[C@@H](Cc1c[nH]c2ccccc12)C(=O)OCc1cc(C(F)(F)F)cc(C(F)(F)F)c1,3.21 ± 1.2
4,CO[C@@H]1[C@H](O)[C@@H](CO)O[C@H]1n1cnc2c(NC3CCCCC3)ncnc21,-1.26 ± 6
5,N#Cc1c(O)c2c(-c3ccc(-c4ccccc4O)cc3)csc2[nH]c1=O,2.95 ± 1.2
6,N[C@@H](CSC(c1ccccc1)(c1ccccc1)c1ccccc1)C(=O)O [S-Trityl-L-cysteine],2.11 ± 2.1
7,CC[N+](C)(CC)CC(=O)Nc1c(C)cccc1C [N-Methyllidocaine iodide],2.3 ± 1.4

# Tested on: mIMCD3
# Assay: robust z cilia incidence difference from vehicle control (robust z score difference); higher = more ciliated cells (rescue)
# Details: 10 µM; 48 h; siRNA: siRpgrip1l
row,Compound,robust z cilia incidence difference
1,CC(=N)NCc1cccc(CN)c1 [1400W dihydrochloride],-1.47
2,O=C(O)/C=C/c1ccc(Cn2ccnc2)cc1 [Ozagrel hydrochloride],-0.826
3,CC(=O)N[C@@H](Cc1c[nH]c2ccccc12)C(=O)OCc1cc(C(F)(F)F)cc(C(F)(F)F)c1,-4.64
4,CO[C@@H]1[C@H](O)[C@@H](CO)O[C@H]1n1cnc2c(NC3CCCCC3)ncnc21,-14.6
5,N#Cc1c(O)c2c(-c3ccc(-c4ccccc4O)cc3)csc2[nH]c1=O,-8.19
6,N[C@@H](CSC(c1ccccc1)(c1ccccc1)c1ccccc1)C(=O)O [S-Trityl-L-cysteine],-2.71
7,CC[N+](C)(CC)CC(=O)Nc1c(C)cccc1C [N-Methyllidocaine iodide],0.939

# Tested on: mIMCD3
# Assay: robust z score of cilia incidence (% cells with single cilium) vs plate controls; higher = more ciliated cells (rescue of cilia loss)
# Details: 10 µM; 48 h; siRNA: siRpgrip1l
row,Compound,robust z score of cilia incidence
1,COC(=O)[C@H](NC(=O)c1cc(-c2ccccc2)nc2ccccc12)c1ccccc1,-6.36 ± 1.5
2,CCN1CCC[C@H]1CNC(=O)c1cc(S(N)(=O)=O)ccc1OC [(S)-(-)-Sulpiride],-4.75 ± 1.4
3,CC(=N)NCc1cccc(CN)c1 [1400W dihydrochloride],-8.31 ± 0.19
4,O=C(O)/C=C/c1ccc(Cn2ccnc2)cc1 [Ozagrel hydrochloride],-133 ± 140
5,CN(C)CCCSc1ccccc1NC(=O)/C=C/c1ccccc1 [Cinanserin hydrochloride],-25.7 ± 15
6,c1ccc(N2CCN(CCCOc3ccc4c(c3)OCO4)CC2)cc1 [BP 554 maleate],-7.35 ± 2.5
7,OC(c1ccccc1)C1CCN(CCc2ccccc2)CC1 (stereo not drawn),-18.9 ± 7.8
8,COCCOC(=O)C1=C(C)NC(C)=C(C(=O)OC(C)C)C1c1cccc([N+](=O)[O-])c1 (stereo not drawn) [Nimodipine],-2.29 ± 5.2
9,CC(=O)N[C@@H](Cc1c[nH]c2ccccc12)C(=O)OCc1cc(C(F)(F)F)cc(C(F)(F)F)c1,-2.05 ± 1.6
10,CCc1c2c(nc3ccc(O)cc13)-c1cc3c(c(=O)n1C2)COC(=O)[C@]3(O)CC,-19.9 ± 0.48
11,COCCCC/C(=N\OCCN)c1ccc(C(F)(F)F)cc1 [Fluvoxamine maleate],-22.55 ± 0.18
12,Cn1cc(C2=C(c3ccc(Cl)cc3Cl)C(=O)NC2=O)c2ccccc21,-148 ± 73
13,Oc1cc2c(cc1O)CN(C(=S)NCCc1ccc(Cl)cc1)CCC2 [Capsazepine],-48.3 ± 27
14,NS(=O)(=O)c1cccc2c1c([N+](=O)[O-])cc1nc(O)c(O)nc12,-25.9 ± 32
15,Clc1ccccc1CNCC1CCC(CNCc2ccccc2Cl)CC1 (stereo not drawn),-508 ± 330
16,CO[C@@H]1[C@H](O)[C@@H](CO)O[C@H]1n1cnc2c(NC3CCCCC3)ncnc21,-4.94 ± 1.8
17,OCc1cc(C(O)CNCCCCCCOCCCCc2ccccc2)ccc1O (stereo not drawn) [Salmeterol],-282 ± 170
18,COC(=O)Nc1ccc2[nH]cc(CCNC(C)=O)c2c1,-7.85 ± 1.7
19,COC(=O)C[C@](O)(CCCC(C)(C)O)C(=O)O[C@@H]1C(OC)=C[C@]23CCCN2CCc2cc4c(cc2[C@H]13)OCO4 [Homoharringtonine],-45.9 ± 1.5
20,CCCOc1ccccc1-c1nc2[nH]nnc2c(=O)[nH]1 [Zaprinast],-10.9 ± 4.2

# Pulled one by one from above, 4 records:
row,Compound,robust z score of cilia incidence
18,COC(=O)Nc1ccc2[nH]cc(CCNC(C)=O)c2c1,-7.85 ± 1.7
15,Clc1ccccc1CNCC1CCC(CNCc2ccccc2Cl)CC1 (stereo not drawn),-508 ± 330
7,OC(c1ccccc1)C1CCN(CCc2ccccc2)CC1 (stereo not drawn),-18.9 ± 7.8
6,c1ccc(N2CCN(CCCOc3ccc4c(c3)OCO4)CC2)cc1 [BP 554 maleate],-7.35 ± 2.5

# More records:

row,Compound,robust z score of cilia incidence
1,CCCCCS(=O)(=O)CCCCCCCCCCn1c(-c2ccc(O)cc2)c(C)c2cc(O)ccc21,-59.6 ± 13
2,O=c1c(O)c(-c2ccc(O)cc2)oc2cc(O)cc(O)c12 [Kaempferol],-4.88 ± 2.1
3,COc1cc(NC(=O)c2ccccn2)ccc1Cl,-11.9 ± 6
4,CCCCC[C@H](O)/C=C/[C@H]1[C@H](O)CC(=O)[C@@H]1C/C=C\CCCC(=O)O [Prostaglandin E2],-11.5 ± 7
5,N#Cc1c(O)c2c(-c3ccc(-c4ccccc4O)cc3)csc2[nH]c1=O,-3.47 ± 1.1
6,O=C(/C=C/c1c(C(=O)O)[nH]c2cc(Cl)cc(Cl)c12)Nc1ccccc1 [Gavestinel],-9.24 ± 8.2
7,"C1CCC2(CC1)CCNCC2 [4,4-Pentamethylenepiperidine hydrochloride]",-11 ± 7.8
8,CC(C)[C@H](CO)Nc1nc(Nc2ccc(C(=O)O)c(Cl)c2)c2ncn(C(C)C)c2n1 [Purvalanol B],-129 ± 81
9,Cn1cnnc1Sc1c([N+](=O)[O-])ncn1C,-19.3 ± 1.7
10,CN(C)c1nc(N)c(C(=O)Nc2cccnc2)nc1Cl [ACDPP hydrochloride],-13 ± 9.9
11,c1ccc(C(NCc2cccnc2)(c2ccccc2)c2ccccc2)cc1,-58.4 ± 6.4
12,Nc1ccc(-c2cccc3c(=O)cc(N4CCOCC4)oc23)cc1,-11.2 ± 4.9
13,N[C@@H](CSC(c1ccccc1)(c1ccccc1)c1ccccc1)C(=O)O [S-Trityl-L-cysteine],-3.53 ± 5.4
14,CC(C)[C@H](CO)Nc1nc(Nc2cc(N)cc(Cl)c2)c2ncn(C(C)C)c2n1 [Aminopurvalanol A],-38.1 ± 10
15,N[C@H](C(=O)O)[C@H](OCc1ccccc1)C(=O)O (racemic),-14.2 ± 3.1
16,CC[N+](C)(CC)CC(=O)Nc1c(C)cccc1C [N-Methyllidocaine iodide],-10.2 ± 0.99
17,COc1cc(-c2ccc(=O)[nH]n2)ccc1OC(F)F [Zardaverine],-10.8 ± 1.6
18,CCCC1O[C@@H]2C[C@H]3[C@@H]4CCC5=CC(=O)C=C[C@]5(C)[C@H]4[C@@H](O)C[C@]3(C)[C@]2(C(=O)CO)O1 (stereo partly drawn) [Budesonide],-21.4 ± 0.37
19,O=C(Nc1ccc([N+](=O)[O-])cc1O)Nc1ccccc1Br,-20.2 ± 4.8
